Data taken from the supplement of paper PMC12889115.
The list shows a part of the results. Values are raw readings; no control value is given beside them.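 Primary screen: polymyxin B was added at a level permeabilizing Salmonella outer membranes while sparing inner membranes. DMSO wells, both with and without polymyxin B, established maximum growth. Plate-to-plate variation meant each plate was ranked on its own, and the lowest-OD600 compounds were selected as hits.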

System: Salmonella enterica serovar Typhimurium SL1344
Test: bacterial growth OD600 after 18 h with compound and polymyxin B; higher = more bacterial growth (less inhibition)
Details: 50 µM, Mueller-Hinton broth

Row | SMILES | bacterial growth OD600 (polymyxin B 1 µg/mL) | bacterial growth OD600 (polymyxin B 0.75 µg/mL)
1 | Cc1ccc(CN2CCN(C(=O)c3cn(Cc4ccccc4F)nn3)CC2=O)cc1 | 0.977 | –
2 | Cc1ccccc1C1(CC(=O)N2CCN(C(C)C)CC2)CC(=O)N(Cc2ccncc2)C1=O (stereo not drawn) | – | 0.821
3 | COC(=O)CC(NC(=O)c1csc2nc(-c3ccccc3)cn12)C(=O)OC (stereo not drawn) | 0.807 | –
4 | O=C(CC(c1ccccc1)c1ccc2c(c1)OCO2)NCc1cnc2ccccn12 (stereo not drawn) | – | 0.924
5 | O=C(NC1CCCN(c2ncccn2)C1)c1cn2ccccc2n1 (stereo not drawn) | – | 0.981
6 | CCOC(=O)CCNC(=O)[C@H]1C[C@@H](C(=O)OC)N(C)[C@H]1c1cccc(F)c1F | – | 0.828
7 | O=C(c1cnc[nH]1)N1CCC(C2CCN(Cc3ccc(Cl)cc3)C2)CC1 (stereo not drawn) | – | 0.83
8 | O=C(NCCc1ccccn1)c1ccc(OC2CCN(C(=O)C3CC3)CC2)cc1 | -0.01 | –
9 | O=C(Cc1cccs1)N1CCC(C2(c3ccccn3)NC(=O)N(CC3CCCO3)C2=O)CC1 (stereo not drawn) | – | 0.921
10 | Oc1ccc(CN2CC[C@@H](N3CCC(O)CC3)[C@H](O)C2)cc1Cl | 0.857 | –
11 | COc1cccc(OCc2nc(C(=O)NCc3c(F)cccc3F)co2)c1 | 0.928 | –
12 | COc1ccc(CN2CCN(Cc3cccc(F)c3)CC2CCO)c(C)c1C (stereo not drawn) | 1.03 | –
13 | CCCC(=O)NC1CC(=O)N(CCc2cccc(Cl)c2)C1 (stereo not drawn) | 0.813 | –
14 | c1ccc(Oc2ncccc2CNCc2cnn(-c3ccccc3)c2)cc1 | 0.959 | –
15 | CC1=C(C(=O)N2CCCC(CCC(=O)NCc3ccccc3Cl)C2)OCCO1 (stereo not drawn) | – | 0.859
16 | O=C(CCC1CCN(C(=O)c2cn3ccsc3n2)CC1)NCc1cccnc1 | 0.991 | –
17 | CC(C)C(=O)N1CCCC1C(=O)Nc1ccccc1Oc1cccnc1 (stereo not drawn) | 0.871 | –

Row | SMILES | bacterial growth OD600 (polymyxin B 1 µg/mL) | bacterial growth OD600 (polymyxin B 0.75 µg/mL)
18 | CC(C)N(C)Cc1nnnn1CC(=O)N1CCCC(C(=O)c2cccs2)C1 (stereo not drawn) | – | 0.804
19 | CCc1csc(CNC(=O)c2ccc(NC3CCCC3)nc2)n1 | 0.927 | –
20 | CCC1CN(CCNC(=O)CCCc2ccccc2)Cc2cc(OC)ccc2O1 (stereo not drawn) | – | 0.776
21 | O=C(NCC1Cc2cccc(-c3ncccn3)c2O1)C1CCC1 (stereo not drawn) | – | 0.871
22 | CC(C)N(Cc1cnn(C)c1)Cc1nc(-c2ccc(C(F)(F)F)cc2)no1 | 0.973 | –
23 | COc1ccc(CCN2C(=O)O[C@@H]3CN(Cc4cnn(C)c4C)C[C@@H]32)cc1 | – | 0.806
24 | COc1ccccc1N1CCN(c2nc(CNC(=O)c3ccncc3)nc3ccccc23)CC1 | – | 0.82
25 | CCOC(=O)CC1COCCN1C(=O)c1ccc(-n2cc(NC(=O)c3ccc(C)cc3C)cn2)cc1 (stereo not drawn) | – | 0.723
26 | OC(Cc1ccccc1)c1ccc2c(c1)CN(C1CCCC1)CCO2 (stereo not drawn) | – | 0.75
27 | CCOC(=O)C1(CCOc2ccccc2)CCCN(C(=O)CCN2CCCCO2)C1 (stereo not drawn) | 0.703 | –
28 | Cc1c(CC(=O)NCc2ccon2)c2c(n1CC(C)C)CC(C)(C)CC2=O | 0.849 | –
29 | COCCNC(=O)c1ccc(OC)cc1OC1CCN(Cc2cc3ccccc3o2)CC1 | 1.21 | –
30 | COc1ccccc1CCNC(=O)Cc1ccc(N2CCC(NC(C)Cc3ccsc3)CC2)cc1 (stereo not drawn) | – | 0.843
31 | CS(=O)(=O)NCc1cccnc1Oc1ccccc1F | – | 0.815
32 | CC(C)S(=O)(=O)N1CCC(C2CCN(Cc3ccc(Cl)cc3)C2)CC1 (stereo not drawn) | – | 0.799
33 | CSc1ccc(CC2(CCC(=O)NCc3cnn(Cc4ccccc4)c3)CCC(=O)N2)cc1 (stereo not drawn) | – | 0.885

A different layout for some results above:
Row,SMILES,bacterial growth OD600 (polymyxin B 1 µg/mL),bacterial growth OD600 (polymyxin B 0.75 µg/mL)
30,COc1ccccc1CCNC(=O)Cc1ccc(N2CCC(NC(C)Cc3ccsc3)CC2)cc1 (stereo not drawn),–,0.843
31,CS(=O)(=O)NCc1cccnc1Oc1ccccc1F,–,0.815
